Assay results as given in paper doi:10.1101/2022.06.14.496144.
No constants are given. Whether binding was seen depends on the method and setting.

Key:
[1] = molecular target: T1, Synechocystis sp. PCC 6803 Orange Carotenoid Protein clade 1 (SynOCP1) (Synechocystis sp. PCC 6803), P74102; test: SEC-MALS; conditions: remark: other sources report otherwise
T1 chain: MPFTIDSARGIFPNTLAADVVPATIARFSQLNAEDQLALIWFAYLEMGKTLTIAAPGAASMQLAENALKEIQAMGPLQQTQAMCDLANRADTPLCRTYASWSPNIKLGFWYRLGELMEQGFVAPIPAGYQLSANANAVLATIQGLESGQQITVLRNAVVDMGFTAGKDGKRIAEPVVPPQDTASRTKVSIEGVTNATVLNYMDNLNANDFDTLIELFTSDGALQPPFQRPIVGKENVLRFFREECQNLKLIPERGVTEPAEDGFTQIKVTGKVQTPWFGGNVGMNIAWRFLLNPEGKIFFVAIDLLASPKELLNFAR

[2] = molecular target: T1, Synechocystis sp. PCC 6803 Orange …; test: SEC; conditions: remark: other sources report otherwise

binding [1]: no binding (tested: 5 mg/ml) | binding [2]: no binding
B1: Synechocystis sp. PCC 6803 Orange Carotenoid Protein clade 1 (SynOCP1), P74102 1-317 (protein)
chain: T1 chain
